The record followed here is PubChem BioAssay AID256 (DTP/NCI, 2004).

The list shows only some results of the screen, not a fair sample: its compounds were picked by chemical class. Other doses and runs of a compound may be missing. T/C: endpoint of the treated group in % of that of the vehicle group. Some entries give survivors of the animals treated and no T/C: the source holds a T/C of zero for them, seemingly a mark for toxic or unscored doses. Some doses without a T/C left all or most animals alive at the check, yet need not have been tolerated: the source hardly ever lists a survival T/C far under the control, and the zero likely stands for such cases as well. Survivors were counted at the toxicity check, usually on the fifth day, unless a day is given; later deaths do not show. Schedule codes are those of the source, read here as Q, the interval in days (D) or hours (H), X, the number of doses. Some schedules carry Z or #; the key to these is not given. For survival time, this PubChem deposit counts one and a half times the control or more as active, and values a quarter to a half above the control carry no call in these data; other NCI protocols may use other cut-offs. Some entries were tested several times; their values stand side by side, smallest first. Some entries show no survivor count and are marked so; the dose need not have been tolerated. Some T/C values carry the count of animals alive at the toxicity check (mostly the fifth day); without a count or a note in brackets, all were alive then.

In this assay the test system is CD2F1 mice, L1210 leukemia ip, survival T/C. Briefly: NCI In Vivo Anticancer Drug Screen. Data for tumor model L1210 Leukemia (intraperitoneal) in CD2F1 (CDF1) mice. The conditions noted are these: T/C endpoint: mean survival time, higher T/C = longer survival. A digest of the protocol:
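Each value reflects a quotient of treated over vehicle control outcomes in mice with a transplanted tumor.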

[1] abbreviates: dose: 5.0 mg/kg/injection, schedule: Q01DX009 (ip), vehicle: saline with Tween-80.
The mark [2] stands for this setting: dose: 10.0 mg/kg/injection, schedule: Q01DX009 (ip), vehicle: saline with Tween-80.
Setting [3] is: dose: 20.0 mg/kg/injection, schedule: Q01DX009 (ip), vehicle: saline with Tween-80.
The mark [4] stands for this setting: dose: 100.0 mg/kg/injection, schedule: Q04DX003 (ip), vehicle: saline with Tween-80.
Where [5] appears, read: dose: 200.0 mg/kg/injection, schedule: Q04DX003 (ip), vehicle: saline with Tween-80.
Setting [6] is: dose: 400.0 mg/kg/injection, schedule: Q04DX003 (ip), vehicle: saline with Tween-80.
[7] abbreviates: dose: 6.25 mg/kg/injection, schedule: Q01DX009 (ip), vehicle: Klucel (hydroxypropylcellulose) (HPC).
[8] abbreviates: dose: 12.5 mg/kg/injection, schedule: Q01DX009 (ip), vehicle: Klucel (hydroxypropylcellulose) (HPC).
Where [9] appears, read: dose: 25.0 mg/kg/injection, schedule: Q01DX009 (ip), vehicle: Klucel (hydroxypropylcellulose) (HPC).
[10] abbreviates: dose: 50.0 mg/kg/injection, schedule: Q01DX009 (ip), vehicle: Klucel (hydroxypropylcellulose) (HPC).
Where [11] appears, read: dose: 100.0 mg/kg/injection, schedule: Q01DX009 (ip), vehicle: Klucel (hydroxypropylcellulose) (HPC).
Setting [12] is: dose: 200.0 mg/kg/injection, schedule: Q01DX009 (ip), vehicle: Klucel (hydroxypropylcellulose) (HPC).
The mark [13] stands for this setting: dose: 75.0 mg/kg/injection, schedule: Q01DX001 (ip), vehicle: saline.
Where [14] appears, read: dose: 150.0 mg/kg/injection, schedule: Q01DX001 (ip), vehicle: saline.

As to `NNC(=O)c1cc([N+](=O)[O-])cc([N+](=O)[O-])c1`, the T/C under setting [1] is 94 % of control; the T/C (dose: 5.0 mg/kg/injection, schedule: Q04DX003 (ip), vehicle: saline with Tween-80) is 86 % of control; the T/C under setting [2] was 101 % of control; the T/C (dose: 10.0 mg/kg/injection, schedule: Q04DX003 (ip), vehicle: saline with Tween-80) is 87 % of control; the T/C under setting [3] was 94 % of control; the T/C (dose: 20.0 mg/kg/injection, schedule: Q04DX003 (ip), vehicle: saline with Tween-80) is 93 % of control. Further, the survivor count under setting [4] is given as 0 of 6, the survivor count under setting [5] is given as 0 of 6 and the survivor count under setting [6] is recorded as 0 of 6.
In the case of `Cc1nc(N)[nH]c(=O)c1CCCNCc1cccnc1.O=[N+]([O-])c1cc([N+](=O)[O-])c(O)c([N+](=O)[O-])c1`, the T/C (dose: 50.0 mg/kg/injection, schedule: Q01DX001 (ip), vehicle: saline with Tween-80) is 101 % of control; the T/C (dose: 100.0 mg/kg/injection, schedule: Q01DX001 (ip), vehicle: saline with Tween-80) is 100 % of control; the T/C (dose: 200.0 mg/kg/injection, schedule: Q01DX001 (ip), vehicle: saline with Tween-80) is 97 % of control.
Consider `Cc1ccc(N(CCCl)CCCl)cc1C`, for which the T/C by setting is: under setting [7], 102 % of control; under setting [8], 103 % of control; under setting [9], 103 % of control; under setting [10], 108 % of control; under setting [11], 103 % of control. Besides, the survivor count under setting [12] is 8 of 8.
In the case of `C[N+](C)(C)Cc1ccccc1.F[P-](F)(F)(F)(F)F`, the T/C under setting [1] is 95 % of control; the T/C (dose: 5.0 mg/kg/injection, schedule: Q04DX003 (ip), vehicle: saline) was 94 % of control; the T/C under setting [2] was 98 % of control; the T/C (dose: 10.0 mg/kg/injection, schedule: Q04DX003 (ip), vehicle: saline) was 94 % of control; the T/C under setting [3] was 91 % of control; the T/C (dose: 20.0 mg/kg/injection, schedule: Q04DX003 (ip), vehicle: saline) was 94 % of control. The survivor count under setting [4] is recorded as 0 of 6, the survivor count under setting [5] is recorded as 0 of 6 and the survivor count under setting [6] is listed as 0 of 6.
Consider `O=P1(N(CCCl)CCCl)NCC(O)CO1` (stereo not given), for which the T/C was 102 % of control (dose: 21.9 mg/kg/injection, schedule: Q01DX001 (ip), vehicle: DMSO); 95 % of control (dose: 25.0 mg/kg/injection, schedule: Q01DX001 (ip), vehicle: DMSO); 100 % of control (dose: 43.8 mg/kg/injection, schedule: Q01DX001 (ip), vehicle: DMSO); 97 % of control (dose: 50.0 mg/kg/injection, schedule: Q01DX001 (ip), vehicle: DMSO); 102 % of control (dose: 87.5 mg/kg/injection, schedule: Q01DX001 (ip), vehicle: DMSO); 101 % of control (dose: 100.0 mg/kg/injection, schedule: Q01DX001 (ip), vehicle: DMSO). The T/C is 105 % of control (dose: 175.0 mg/kg/injection, schedule: Q01DX001 (ip), vehicle: DMSO); 103 % of control (dose: 200.0 mg/kg/injection, schedule: Q01DX001 (ip), vehicle: DMSO); 105 % of control (dose: 350.0 mg/kg/injection, schedule: Q01DX001 (ip), vehicle: DMSO); 106 % of control (dose: 400.0 mg/kg/injection, schedule: Q01DX001 (ip), vehicle: DMSO); 110 % of control (dose: 700.0 mg/kg/injection, schedule: Q01DX001 (ip), vehicle: DMSO).
`NC(=Nc1ccccc1)C(N)=Nc1ccccc1.O=[N+]([O-])c1cc([N+](=O)[O-])c(O)c([N+](=O)[O-])c1`: the T/C was 96 % of control (dose: 25.0 mg/kg/injection, schedule: Q04DX002 (ip), vehicle: saline with Tween-80); 88 % of control (dose: 50.0 mg/kg/injection, schedule: Q04DX002 (ip), vehicle: saline with Tween-80); 100 % of control (dose: 100.0 mg/kg/injection, schedule: Q04DX002 (ip), vehicle: saline with Tween-80); 96 % of control (dose: 200.0 mg/kg/injection, schedule: Q04DX002 (ip), vehicle: saline with Tween-80).
On to `COP(=O)(OC)N(CCCl)CCCl`, for which the T/C (dose: 100.0 mg/kg/injection, schedule: Q01DX009 (ip), vehicle: saline) was 118 % of control [5 of 6 alive]. Besides, the survivor count (dose: 200.0 mg/kg/injection, schedule: Q01DX009 (ip), vehicle: saline) was 4 of 6.
For the compound `CCNP(=O)(OCc1ccccc1)N(CCCl)CCCl` (stereo not given), the T/C reads like this: (dose: 128.0 mg/kg/injection, schedule: Q01DX Z (ip), vehicle: saline) 109 % of control; (dose: 256.0 mg/kg/injection, schedule: Q01DX Z (ip), vehicle: saline) 125 % of control [4 of 6 alive]. For the same compound, the survivor count (dose: 512.0 mg/kg/injection, schedule: Q01DX Z (ip), vehicle: saline) was 0 of 6.
In the case of `O=C(O)c1cccc(N(CCCl)CCCl)c1`, the T/C under setting [7] is 104 % of control; the T/C under setting [8] was 110 % of control; the T/C (dose: 25.0 mg/kg/injection, schedule: Q01DX001 (ip), vehicle: Klucel (hydroxypropylcellulose) (HPC)) is 117 % of control; the T/C under setting [9] is 109 % of control; the T/C (dose: 25.0 mg/kg/injection, schedule: Q04DX003 (ip), vehicle: Klucel (hydroxypropylcellulose) (HPC)) was 102 and 112 % of control; the T/C (dose: 25.0 mg/kg/injection, schedule: Q08DX002 (ip), vehicle: Klucel (hydroxypropylcellulose) (HPC)) was 98 % of control. The T/C by setting is: (dose: 50.0 mg/kg/injection, schedule: Q01DX001 (ip), vehicle: Klucel (hydroxypropylcellulose) (HPC)) 102 % of control; under setting [10], 139 and 146 % of control; (dose: 50.0 mg/kg/injection, schedule: Q04DX003 (ip), vehicle: Klucel (hydroxypropylcellulose) (HPC)) 118 and 129 % of control; (dose: 50.0 mg/kg/injection, schedule: Q08DX002 (ip), vehicle: Klucel (hydroxypropylcellulose) (HPC)) 101 % of control; (dose: 100.0 mg/kg/injection, schedule: Q01DX001 (ip), vehicle: Klucel (hydroxypropylcellulose) (HPC)) 108 % of control; under setting [11], 152 % of control. The T/C (dose: 100.0 mg/kg/injection, schedule: Q04DX003 (ip), vehicle: Klucel (hydroxypropylcellulose) (HPC)) was 118 and 124 % of control; the T/C (dose: 100.0 mg/kg/injection, schedule: Q08DX002 (ip), vehicle: Klucel (hydroxypropylcellulose) (HPC)) was 97 % of control. Further, the survivor count reads like this: under setting [11], 3 of 6; under setting [12], 0 of 6.
Regarding `CCN(CC)CCOC(=O)C(O)(c1ccc(C(C)C)cc1)c1ccc(C(C)C)cc1`, the T/C was 93 % of control under setting [13] and 93 % of control under setting [14].
As to `CC(C)CC(C)NCCO.O=[N+]([O-])c1cc([N+](=O)[O-])c(O)c([N+](=O)[O-])c1`, the T/C is, setting by setting: (dose: 75.0 mg/kg/injection, schedule: Q01DX001 (ip), vehicle: other) 93 % of control [survivor count not shown]; (dose: 150.0 mg/kg/injection, schedule: Q01DX001 (ip), vehicle: other) 92 % of control [survivor count not shown]; (dose: 300.0 mg/kg/injection, schedule: Q01DX001 (ip), vehicle: other) 89 % of control [survivor count not shown].
As for `CCC(CO)NC(C)C.O=[N+]([O-])c1cc([N+](=O)[O-])c(O)c([N+](=O)[O-])c1`, the T/C reads like this: under setting [13], 92 % of control [survivor count not shown]; under setting [14], 95 % of control [survivor count not shown].
